Article PMC2810305
These are yes or no findings as the source states them, for the method shown. Some entries that bind do so weakly or less than the wild type.

T1: cytosolic glutamyl-tRNA synthetase (Cyt-gluRS) (AT5G26710) (Arabidopsis thaliana) (UniProt O82462)
T1 sequence: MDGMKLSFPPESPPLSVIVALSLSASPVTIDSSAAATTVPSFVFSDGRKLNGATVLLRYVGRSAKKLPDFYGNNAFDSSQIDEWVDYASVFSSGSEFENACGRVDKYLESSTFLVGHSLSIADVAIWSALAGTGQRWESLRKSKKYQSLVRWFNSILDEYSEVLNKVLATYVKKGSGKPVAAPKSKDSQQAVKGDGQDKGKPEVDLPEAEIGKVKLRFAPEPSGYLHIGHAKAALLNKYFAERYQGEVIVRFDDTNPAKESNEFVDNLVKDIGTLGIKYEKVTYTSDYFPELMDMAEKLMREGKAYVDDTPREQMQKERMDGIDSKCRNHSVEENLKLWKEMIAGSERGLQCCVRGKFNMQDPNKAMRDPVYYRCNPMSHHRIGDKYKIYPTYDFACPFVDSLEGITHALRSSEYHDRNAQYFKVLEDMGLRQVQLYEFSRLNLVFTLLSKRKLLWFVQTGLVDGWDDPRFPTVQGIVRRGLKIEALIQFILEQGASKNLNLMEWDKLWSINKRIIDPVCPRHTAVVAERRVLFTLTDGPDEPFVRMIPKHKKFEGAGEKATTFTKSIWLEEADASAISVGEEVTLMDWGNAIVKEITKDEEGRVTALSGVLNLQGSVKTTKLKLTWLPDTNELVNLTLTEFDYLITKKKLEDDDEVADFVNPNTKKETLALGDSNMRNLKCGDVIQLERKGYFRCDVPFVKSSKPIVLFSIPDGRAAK


Biological target: T1, cytosolic glutamyl-tRNA synthetase (Cyt-gluRS) (AT5G26710) (Arabidopsis thaliana)
Assay: two-hybrid; Gal4 based yeast two-hybrid system, AT5G26710 as bait; AH109 transformants spotted on -LW (selection of prey and bait plasmids) and -LWAH (reporter gene activation)

| binding | Binder |
| --- | --- |
| binds | zinc finger protein (AT5G24930) (protein, UniProt Q940T9 1-362) MASKLCDSCKSATAALYCRPDAAFLCLSCDSKVHAANKLASRHARVWMCEVCEQAPAHVTCKADAAALCVTCDRDIHSANPLARRHERVPVTPFYDSVSSDGSVKHTAVNFLDDCYFSDIDGNGSREEEEEEAASWLLLPNPKTTTTATAGIVAVTSAEEVPGDSPEMNTGQQYLFSDPDPYLDLDYGNVDPKVESLEQNSSGTDGVVPVENRTVRIPTVNENCFEMDFTGGSKGFTYGGGYNCISHSVSSSSMEVGVVPDGGSVADVSYPYGGPATSGADPGTQRAVPLTSAEREARVMRYREKRKNRKFEKTIRYASRKAYAEMRPRIKGRFAKRTDTNESNDVVGHGGIFSGFGLVPTF |
| binds | glutamine synthetase (AT5G35630) (enzyme, UniProt Q43127 1-430) MAQILAASPTCQMRVPKHSSVIASSSKLWSSVVLKQKKQSNNKVRGFRVLALQSDNSTVNRVETLLNLDTKPYSDRIIAEYIWIGGSGIDLRSKSRTIEKPVEDPSELPKWNYDGSSTGQAPGEDSEVILYPQAIFRDPFRGGNNILVICDTWTPAGEPIPTNKRAKAAEIFSNKKVSGEVPWFGIEQEYTLLQQNVKWPLGWPVGAFPGPQGPYYCGVGADKIWGRDISDAHYKACLYAGINISGTNGEVMPGQWEFQVGPSVGIDAGDHVWCARYLLERITEQAGVVLTLDPKPIEGDWNGAGCHTNYSTKSMREEGGFEVIKKAILNLSLRHKEHISAYGEGNERRLTGKHETASIDQFSWGVANRGCSIRVGRDTEAKGKGYLEDRRPASNMDPYIVTSLLAETTLLWEPTLEAEALAAQKLSLNV |
